Reference: patent US20240325353A1, “COMPOUND FOR TREATMENT OF COGNITIVE DISORDERS” (Syndesi Therapeutics SA, priority 2021, published 2024)
This continues a long series; more values of the same kind are listed elsewhere.

Test system: brain activity (BOLD signal)
Experiment: pharmaco-MRI (BOLD) neuroimaging study in conscious rats
Type: in vivo, rat
Details: 20-30 min post injection
Procedure: Test Substance, Reference Substance(s), and Vehicle: the compound of example 1 test substance for dose-dependent change in BOLD signal was provided by Syndesi along with the formula for the vehicle.
Subjects: Forty-eight male Sprague Dawley rats weighing ca 275-300 g were obtained from Charles River Laboratories (Wilmington, MA, USA). Rat were maintained on a 12:12 hour light:dark cycle with a lights on at 0700 hours and allowed access to food and water ad libitum. All rats were acquired and cared for in accordance with the guidelines published in the Guide for the Care and Use of Laboratory Animals (National Institutes of Health Publications No. 85-23, Revised 1985) and adhered to the National Institutes of Health and the American Association for Laboratory Animal Science guidelines.
Acclimation: To reduce the stress associated with head restraint, rats were acclimated to the restraining system (head holder and body tube) one week prior to their actual imaging session. The design of the restraining system (Animal Imaging Research, Holden MA, USA) included a padded head support obviating the need for ear bars helping to reduce animal discomfort while minimizing motion artifact. These acclimation sessions were run each day for 4-5 consecutive days. Rats were briefly anesthetized with 2-3% isoflurane while being secured into the head holder. The forepaws were secured with tape. When fully conscious, the imaging system is placed into a black opaque box “mock scanner” for 30 min with a tape-recording of the MRI pulse sequence to simulate the bore of the magnet and the imaging protocol. A significant decline in respiration, heart rate, motor movements, and plasma corticosterone has been measured when the first and last acclimation periods are compared (King et al., 2005). The reduction in autonomic and somatic measures of arousal and stress improve the signal resolution and quality of the images.
Image Acquisition: Animals were scanned at 300 MHz using a quadrature transmit/receive volume coil built into the rat head holder and restraining system for awake animal imaging (Animal Imaging Research, Holden, MA, USA). The design of the coil provided complete coverage of the brain from olfactory bulbs to brain stem with excellent B1 field homogeneity. Experiments were conducted using a Bruker Biospec 7.0 T/20-cm USR horizontal magnet (Bruker, Billerica, MA, USA) and a 20-G/cm magnetic field gradient insert (ID=12 cm) capable of a 120-μs rise time. At the beginning of each imaging session, a high-resolution anatomical data set was collected using the RARE pulse sequence [22 slice; 1.0 mm; field of view (FOV) 3.0 cm; matrix size 256×256; repetition time (TR) 2.5 s; echo time (TE) 12 ms; NEX 2; 3 min acquisition time]. Functional images were acquired using a multi-slice half-Fourier acquisition single-shot turbo spin echo (HASTE) pulse sequence. Bruker Paravision automatically finds the basic frequency, shims, power requirements for 90° and 180° pulses and sets the receiver gain. A single scanning session acquired 22 slices, 1.0 mm thick, every 6.0 s (TR), using an effective TE of 48 ms, FOV 3.0 cm, matrix size 96×96, NEX 1, and repeated 450 times for a total scanning time of 45 min. The in-plane pixel resolution was 312 μm2.
Data Processing: Data are coregistered to a mean functional image using SPM8's coregistrational code with the following parameters: Quality: 0.97, Smoothing: 0.35 mm, Separation: 0.5 mm. Gaussian smoothing was performed with a FWHM of 0.8 mm. Images were aligned and registered to the 3D rat brain atlas, segmented and labeled with 171 discrete anatomical regions. The alignment process was facilitated by an interactive graphic user interface. The registration process involved translation, rotation and scaling independently and in all three dimensions. Matrices that transformed each subject's anatomy were used to embed each slice within the atlas. […]

## O=C1C[C@H](c2cc(F)c(F)c(F)c2)CN1Cn1ncnc1Cl [compound of example 1, (4R)-1-[(5-chloro-1H-1,2,4-triazol-1-yl)methyl]-4-(3,4,5-trifluorophenyl)pyrrolidin-2-one]
CA2, 0.1 mg/kg i.p.
  median number of positive voxels (positive BOLD volume of activation): 0
CA2, 0.3 mg/kg i.p.
  median number of positive voxels (positive BOLD volume of activation): 0
CA2, 1.0 mg/kg i.p.
  median number of positive voxels (positive BOLD volume of activation): 0
CA3 dorsal, 0.1 mg/kg i.p.
  median number of positive voxels (positive BOLD volume of activation): 4
CA3 dorsal, 0.3 mg/kg i.p.
  median number of positive voxels (positive BOLD volume of activation): 4
CA3 dorsal, 1.0 mg/kg i.p.
  median number of positive voxels (positive BOLD volume of activation): 0
Auditory ctx, 0.1 mg/kg i.p.
  median number of positive voxels (positive BOLD volume of activation): 27
Auditory ctx, 0.3 mg/kg i.p.
  median number of positive voxels (positive BOLD volume of activation): 8
Auditory ctx, 1.0 mg/kg i.p.
  median number of positive voxels (positive BOLD volume of activation): 0
Basal amygdaloid nucleus, 0.1 mg/kg i.p.
  median number of positive voxels (positive BOLD volume of activation): 22
Basal amygdaloid nucleus, 0.3 mg/kg i.p.
  median number of positive voxels (positive BOLD volume of activation): 4
Basal amygdaloid nucleus, 1.0 mg/kg i.p.
  median number of positive voxels (positive BOLD volume of activation): 0
Bed nucleus stria terminalis, 0.1 mg/kg i.p.
  median number of positive voxels (positive BOLD volume of activation): 29
Bed nucleus stria terminalis, 0.3 mg/kg i.p.
  median number of positive voxels (positive BOLD volume of activation): 13
Bed nucleus stria terminalis, 1.0 mg/kg i.p.
  median number of positive voxels (positive BOLD volume of activation): 0
Central gray, 0.1 mg/kg i.p.
  median number of positive voxels (positive BOLD volume of activation): 3
Central gray, 0.3 mg/kg i.p.
  median number of positive voxels (positive BOLD volume of activation): 3
Central gray, 1.0 mg/kg i.p.
  median number of positive voxels (positive BOLD volume of activation): 0
Copula of the pyramis, 0.1 mg/kg i.p.
  median number of positive voxels (positive BOLD volume of activation): 0
Copula of the pyramis, 0.3 mg/kg i.p.
  median number of positive voxels (positive BOLD volume of activation): 11
Copula of the pyramis, 1.0 mg/kg i.p.
  median number of positive voxels (positive BOLD volume of activation): 0
Dorsal lateral striatum, 0.1 mg/kg i.p.
  median number of positive voxels (positive BOLD volume of activation): 80
Dorsal lateral striatum, 0.3 mg/kg i.p.
  median number of positive voxels (positive BOLD volume of activation): 12
Dorsal lateral striatum, 1.0 mg/kg i.p.
  median number of positive voxels (positive BOLD volume of activation): 0
Entorhinal ctx, 0.1 mg/kg i.p.
  median number of positive voxels (positive BOLD volume of activation): 134
Entorhinal ctx, 0.3 mg/kg i.p.
  median number of positive voxels (positive BOLD volume of activation): 75
Entorhinal ctx, 1.0 mg/kg i.p.
  median number of positive voxels (positive BOLD volume of activation): 5
Extended amydala, 0.1 mg/kg i.p.
  median number of positive voxels (positive BOLD volume of activation): 8
Extended amydala, 0.3 mg/kg i.p.
  median number of positive voxels (positive BOLD volume of activation): 2
Extended amydala, 1.0 mg/kg i.p.
  median number of positive voxels (positive BOLD volume of activation): 0
Lateral amygdaloid nucleus, 0.3 mg/kg i.p.
  median number of positive voxels (positive BOLD volume of activation): 0
Lateral amygdaloid nucleus, 1.0 mg/kg i.p.
  median number of positive voxels (positive BOLD volume of activation): 0
Lemniscal nucleus, 0.1 mg/kg i.p.
  median number of positive voxels (positive BOLD volume of activation): 12
Lemniscal nucleus, 0.3 mg/kg i.p.
  median number of positive voxels (positive BOLD volume of activation): 10
Lemniscal nucleus, 1.0 mg/kg i.p.
  median number of positive voxels (positive BOLD volume of activation): 1
Magnocellular preoptic nucleus, 0.1 mg/kg i.p.
  median number of positive voxels (positive BOLD volume of activation): 1
Medial amygdaloid nucleus, 0.1 mg/kg i.p.
  median number of positive voxels (positive BOLD volume of activation): 18
Medial amygdaloid nucleus, 0.3 mg/kg i.p.
  median number of positive voxels (positive BOLD volume of activation): 13
Medial amygdaloid nucleus, 1.0 mg/kg i.p.
  median number of positive voxels (positive BOLD volume of activation): 1
Medial cerebellar nucleus fastigial, 0.1 mg/kg i.p.
  median number of positive voxels (positive BOLD volume of activation): 0
Medial cerebellar nucleus fastigial, 0.3 mg/kg i.p.
  median number of positive voxels (positive BOLD volume of activation): 0
Medial cerebellar nucleus fastigial, 1.0 mg/kg i.p.
  median number of positive voxels (positive BOLD volume of activation): 0
Medial geniculate, 0.1 mg/kg i.p.
  median number of positive voxels (positive BOLD volume of activation): 3
Medial geniculate, 0.3 mg/kg i.p.
  median number of positive voxels (positive BOLD volume of activation): 2
Medial geniculate, 1.0 mg/kg i.p.
  median number of positive voxels (positive BOLD volume of activation): 0
Medial orbital ctx, 0.1 mg/kg i.p.
  median number of positive voxels (positive BOLD volume of activation): 15
Medial orbital ctx, 0.3 mg/kg i.p.
  median number of positive voxels (positive BOLD volume of activation): 12
Medial orbital ctx, 1.0 mg/kg i.p.
  median number of positive voxels (positive BOLD volume of activation): 2
Parafascicular thalamic nucleus, 0.1 mg/kg i.p.
  median number of positive voxels (positive BOLD volume of activation): 20
Parafascicular thalamic nucleus, 0.3 mg/kg i.p.
  median number of positive voxels (positive BOLD volume of activation): 12
Parafascicular thalamic nucleus, 1.0 mg/kg i.p.
  median number of positive voxels (positive BOLD volume of activation): 0
Paraflocculus cerebellum, 0.1 mg/kg i.p.
  median number of positive voxels (positive BOLD volume of activation): 66
Paraflocculus cerebellum, 0.3 mg/kg i.p.
  median number of positive voxels (positive BOLD volume of activation): 42
Paraflocculus cerebellum, 1.0 mg/kg i.p.
  median number of positive voxels (positive BOLD volume of activation): 8
Paraventricular nucleus (second entry, P 0.026), 0.1 mg/kg i.p.
  median number of positive voxels (positive BOLD volume of activation): 4
Paraventricular nucleus (second entry, P 0.026), 0.3 mg/kg i.p.
  median number of positive voxels (positive BOLD volume of activation): 3
Paraventricular nucleus (second entry, P 0.026), 1.0 mg/kg i.p.
  median number of positive voxels (positive BOLD volume of activation): 0
Parvicellular reticular n., 0.1 mg/kg i.p.
  median number of positive voxels (positive BOLD volume of activation): 5
Parvicellular reticular n., 0.3 mg/kg i.p.
  median number of positive voxels (positive BOLD volume of activation): 24
